Reference: the supplement of paper PMC12067093, “Discovery and optimisation of a covalent ligand for TRIM25 and its application to targeted protein ubiquitination” (Chemical Science, 2025)
This is one part of the list.

Protein sequences, listed by entry. Tags and fused reporters are not part of them. Lines headed by an entry give the natural chain unless they say otherwise; changes in a name come on top.
UniProt P63279, whole entry, looked up: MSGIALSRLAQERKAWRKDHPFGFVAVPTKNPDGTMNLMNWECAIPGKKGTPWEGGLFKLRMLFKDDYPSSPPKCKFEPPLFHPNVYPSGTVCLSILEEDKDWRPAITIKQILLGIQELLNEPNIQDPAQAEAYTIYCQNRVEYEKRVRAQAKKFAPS
UniProt Q9NNW7, whole entry, looked up: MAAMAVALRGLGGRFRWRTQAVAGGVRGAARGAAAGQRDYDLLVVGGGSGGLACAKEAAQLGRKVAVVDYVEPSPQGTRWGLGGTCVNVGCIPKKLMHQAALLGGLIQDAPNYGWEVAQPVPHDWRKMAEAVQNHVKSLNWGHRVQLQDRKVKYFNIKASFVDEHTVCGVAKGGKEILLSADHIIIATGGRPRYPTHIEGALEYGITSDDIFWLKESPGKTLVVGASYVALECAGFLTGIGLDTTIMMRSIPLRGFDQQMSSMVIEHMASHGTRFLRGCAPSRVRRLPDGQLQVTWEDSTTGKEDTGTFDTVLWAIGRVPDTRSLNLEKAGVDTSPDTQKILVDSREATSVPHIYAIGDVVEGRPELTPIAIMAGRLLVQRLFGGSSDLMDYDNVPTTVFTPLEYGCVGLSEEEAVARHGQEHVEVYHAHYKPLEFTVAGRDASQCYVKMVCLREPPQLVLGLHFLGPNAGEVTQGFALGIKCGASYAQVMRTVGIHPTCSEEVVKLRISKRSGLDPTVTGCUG
UniProt Q9H3M7: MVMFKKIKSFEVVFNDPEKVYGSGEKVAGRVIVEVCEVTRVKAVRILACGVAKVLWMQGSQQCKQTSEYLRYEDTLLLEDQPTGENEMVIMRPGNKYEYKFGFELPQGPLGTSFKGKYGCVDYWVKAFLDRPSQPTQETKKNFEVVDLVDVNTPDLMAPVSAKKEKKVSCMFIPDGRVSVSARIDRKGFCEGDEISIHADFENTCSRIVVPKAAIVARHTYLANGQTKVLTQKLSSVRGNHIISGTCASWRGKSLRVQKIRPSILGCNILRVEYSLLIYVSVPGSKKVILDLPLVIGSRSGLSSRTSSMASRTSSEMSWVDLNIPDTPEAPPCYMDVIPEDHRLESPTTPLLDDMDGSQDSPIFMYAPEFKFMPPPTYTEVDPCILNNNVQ
UniProt P22314: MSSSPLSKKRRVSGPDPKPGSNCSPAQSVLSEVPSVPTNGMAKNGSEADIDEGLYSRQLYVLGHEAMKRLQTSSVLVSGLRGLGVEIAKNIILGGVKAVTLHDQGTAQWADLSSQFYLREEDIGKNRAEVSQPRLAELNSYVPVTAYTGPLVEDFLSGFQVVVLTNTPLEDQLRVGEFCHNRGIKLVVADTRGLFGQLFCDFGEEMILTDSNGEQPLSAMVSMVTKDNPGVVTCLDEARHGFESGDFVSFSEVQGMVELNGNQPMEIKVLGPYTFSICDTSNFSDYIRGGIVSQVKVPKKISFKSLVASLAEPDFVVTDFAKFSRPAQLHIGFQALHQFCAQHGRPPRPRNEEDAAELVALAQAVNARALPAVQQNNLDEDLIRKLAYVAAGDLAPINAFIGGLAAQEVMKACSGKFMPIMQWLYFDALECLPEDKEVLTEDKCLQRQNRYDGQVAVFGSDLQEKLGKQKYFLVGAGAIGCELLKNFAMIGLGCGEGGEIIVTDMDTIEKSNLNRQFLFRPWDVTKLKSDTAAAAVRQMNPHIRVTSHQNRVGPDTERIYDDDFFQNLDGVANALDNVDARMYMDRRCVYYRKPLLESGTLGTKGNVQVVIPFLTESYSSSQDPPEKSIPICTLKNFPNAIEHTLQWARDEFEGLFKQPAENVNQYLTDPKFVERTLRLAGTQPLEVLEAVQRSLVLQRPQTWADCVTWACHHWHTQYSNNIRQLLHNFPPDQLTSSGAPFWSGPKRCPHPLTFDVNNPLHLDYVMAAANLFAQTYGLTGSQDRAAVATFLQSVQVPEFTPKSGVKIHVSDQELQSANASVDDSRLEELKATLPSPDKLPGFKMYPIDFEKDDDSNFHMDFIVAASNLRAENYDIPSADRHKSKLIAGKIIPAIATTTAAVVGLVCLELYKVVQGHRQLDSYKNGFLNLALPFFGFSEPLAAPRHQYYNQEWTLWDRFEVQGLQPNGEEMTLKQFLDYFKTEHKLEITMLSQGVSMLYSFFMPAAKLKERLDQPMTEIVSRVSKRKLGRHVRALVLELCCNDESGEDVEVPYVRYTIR
UniProt Q9C0C9: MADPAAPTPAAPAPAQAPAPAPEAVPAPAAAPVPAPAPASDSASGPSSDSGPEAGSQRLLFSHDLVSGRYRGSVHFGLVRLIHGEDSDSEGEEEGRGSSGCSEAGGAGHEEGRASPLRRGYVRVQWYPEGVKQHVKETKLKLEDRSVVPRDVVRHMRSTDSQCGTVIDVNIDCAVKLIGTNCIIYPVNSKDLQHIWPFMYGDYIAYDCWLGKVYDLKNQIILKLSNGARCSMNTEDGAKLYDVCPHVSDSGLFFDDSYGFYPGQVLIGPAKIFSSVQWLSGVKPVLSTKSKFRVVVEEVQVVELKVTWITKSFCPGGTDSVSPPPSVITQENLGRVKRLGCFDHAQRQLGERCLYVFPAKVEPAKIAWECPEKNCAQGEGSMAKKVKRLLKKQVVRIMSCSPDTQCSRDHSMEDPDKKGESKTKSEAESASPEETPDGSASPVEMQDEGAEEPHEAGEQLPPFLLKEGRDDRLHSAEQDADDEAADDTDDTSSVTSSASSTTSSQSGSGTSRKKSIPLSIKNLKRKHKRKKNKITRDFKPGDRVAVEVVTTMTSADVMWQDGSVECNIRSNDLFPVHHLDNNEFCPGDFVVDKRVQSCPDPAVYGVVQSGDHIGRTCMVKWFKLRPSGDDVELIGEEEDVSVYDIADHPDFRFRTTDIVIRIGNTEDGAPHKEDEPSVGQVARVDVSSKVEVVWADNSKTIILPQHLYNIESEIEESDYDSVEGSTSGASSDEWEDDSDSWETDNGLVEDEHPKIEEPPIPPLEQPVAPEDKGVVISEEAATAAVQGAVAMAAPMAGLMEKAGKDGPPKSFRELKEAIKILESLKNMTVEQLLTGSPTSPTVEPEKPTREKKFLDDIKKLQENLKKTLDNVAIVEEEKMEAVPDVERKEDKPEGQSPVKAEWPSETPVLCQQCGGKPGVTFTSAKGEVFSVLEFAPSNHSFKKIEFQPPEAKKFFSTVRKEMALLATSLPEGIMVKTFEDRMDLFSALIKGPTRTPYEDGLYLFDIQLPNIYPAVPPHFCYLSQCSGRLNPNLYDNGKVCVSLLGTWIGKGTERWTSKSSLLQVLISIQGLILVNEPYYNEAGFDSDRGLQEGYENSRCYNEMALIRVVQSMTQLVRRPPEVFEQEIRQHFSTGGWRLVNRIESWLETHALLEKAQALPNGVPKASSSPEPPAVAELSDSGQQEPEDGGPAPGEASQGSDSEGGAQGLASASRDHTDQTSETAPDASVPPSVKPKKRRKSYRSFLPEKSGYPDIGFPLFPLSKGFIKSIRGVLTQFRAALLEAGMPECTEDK
UniProt O15042: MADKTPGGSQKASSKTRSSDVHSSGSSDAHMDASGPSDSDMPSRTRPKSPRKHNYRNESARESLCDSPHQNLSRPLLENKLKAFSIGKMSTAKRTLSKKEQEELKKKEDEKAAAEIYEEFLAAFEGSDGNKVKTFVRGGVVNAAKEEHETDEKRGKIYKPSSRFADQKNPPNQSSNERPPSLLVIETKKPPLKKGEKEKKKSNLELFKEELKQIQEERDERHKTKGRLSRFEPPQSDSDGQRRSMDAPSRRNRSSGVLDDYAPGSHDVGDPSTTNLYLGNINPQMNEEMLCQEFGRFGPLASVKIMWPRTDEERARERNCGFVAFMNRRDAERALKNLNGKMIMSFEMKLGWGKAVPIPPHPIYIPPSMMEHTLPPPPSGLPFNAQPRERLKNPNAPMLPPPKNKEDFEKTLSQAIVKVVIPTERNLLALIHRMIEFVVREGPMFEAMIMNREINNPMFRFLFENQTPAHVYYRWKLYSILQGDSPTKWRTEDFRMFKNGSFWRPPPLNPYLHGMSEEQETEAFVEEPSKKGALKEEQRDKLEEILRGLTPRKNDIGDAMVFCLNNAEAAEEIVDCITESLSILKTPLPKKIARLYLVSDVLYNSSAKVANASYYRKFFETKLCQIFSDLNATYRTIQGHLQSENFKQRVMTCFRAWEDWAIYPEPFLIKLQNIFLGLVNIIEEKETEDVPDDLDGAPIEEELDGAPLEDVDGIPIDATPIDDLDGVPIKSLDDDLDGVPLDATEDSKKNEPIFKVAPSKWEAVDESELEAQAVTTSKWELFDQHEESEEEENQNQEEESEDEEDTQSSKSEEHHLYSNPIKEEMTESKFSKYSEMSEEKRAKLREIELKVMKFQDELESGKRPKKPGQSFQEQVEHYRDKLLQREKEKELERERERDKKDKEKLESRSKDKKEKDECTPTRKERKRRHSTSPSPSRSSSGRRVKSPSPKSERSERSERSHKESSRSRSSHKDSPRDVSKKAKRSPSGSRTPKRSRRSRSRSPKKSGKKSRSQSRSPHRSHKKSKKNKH
UniProt Q969M7: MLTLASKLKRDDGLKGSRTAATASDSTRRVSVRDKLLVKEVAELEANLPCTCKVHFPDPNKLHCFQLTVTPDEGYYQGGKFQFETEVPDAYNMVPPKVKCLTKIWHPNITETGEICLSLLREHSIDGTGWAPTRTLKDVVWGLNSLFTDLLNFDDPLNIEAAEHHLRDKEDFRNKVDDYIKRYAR
UniProt O43396: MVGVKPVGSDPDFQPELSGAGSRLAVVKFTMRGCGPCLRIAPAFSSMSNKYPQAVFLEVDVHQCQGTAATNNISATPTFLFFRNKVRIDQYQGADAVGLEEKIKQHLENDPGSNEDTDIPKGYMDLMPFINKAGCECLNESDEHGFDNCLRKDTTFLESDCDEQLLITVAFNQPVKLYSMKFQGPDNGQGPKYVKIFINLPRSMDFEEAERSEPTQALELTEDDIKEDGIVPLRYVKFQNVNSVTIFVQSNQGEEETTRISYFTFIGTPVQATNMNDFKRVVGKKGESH
UniProt Q3KQV9: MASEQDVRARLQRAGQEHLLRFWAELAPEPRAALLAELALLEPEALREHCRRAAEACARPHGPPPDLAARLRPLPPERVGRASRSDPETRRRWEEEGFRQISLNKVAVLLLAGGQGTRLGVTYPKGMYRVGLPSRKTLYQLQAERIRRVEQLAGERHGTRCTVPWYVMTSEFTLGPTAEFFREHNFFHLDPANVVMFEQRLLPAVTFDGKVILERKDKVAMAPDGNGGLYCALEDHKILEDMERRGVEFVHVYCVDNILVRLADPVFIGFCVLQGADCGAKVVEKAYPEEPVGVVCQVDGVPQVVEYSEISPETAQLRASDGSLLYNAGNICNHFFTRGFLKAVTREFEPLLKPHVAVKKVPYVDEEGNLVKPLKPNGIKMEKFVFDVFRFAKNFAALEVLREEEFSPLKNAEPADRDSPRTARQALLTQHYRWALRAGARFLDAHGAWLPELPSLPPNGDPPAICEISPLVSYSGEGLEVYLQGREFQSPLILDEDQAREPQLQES
UniProt P19971: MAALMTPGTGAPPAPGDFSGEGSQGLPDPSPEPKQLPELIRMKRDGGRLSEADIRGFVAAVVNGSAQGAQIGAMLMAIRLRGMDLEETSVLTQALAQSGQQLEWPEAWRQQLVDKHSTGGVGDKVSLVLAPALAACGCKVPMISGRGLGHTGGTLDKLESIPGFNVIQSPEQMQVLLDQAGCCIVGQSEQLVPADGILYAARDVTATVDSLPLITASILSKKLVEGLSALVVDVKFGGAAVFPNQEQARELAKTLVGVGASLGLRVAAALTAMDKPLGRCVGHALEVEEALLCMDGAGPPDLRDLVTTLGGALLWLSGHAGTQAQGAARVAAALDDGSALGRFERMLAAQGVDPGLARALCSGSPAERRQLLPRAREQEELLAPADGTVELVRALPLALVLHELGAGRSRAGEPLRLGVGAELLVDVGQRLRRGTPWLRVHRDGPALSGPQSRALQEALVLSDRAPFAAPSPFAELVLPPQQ
UniProt Q7Z6J8: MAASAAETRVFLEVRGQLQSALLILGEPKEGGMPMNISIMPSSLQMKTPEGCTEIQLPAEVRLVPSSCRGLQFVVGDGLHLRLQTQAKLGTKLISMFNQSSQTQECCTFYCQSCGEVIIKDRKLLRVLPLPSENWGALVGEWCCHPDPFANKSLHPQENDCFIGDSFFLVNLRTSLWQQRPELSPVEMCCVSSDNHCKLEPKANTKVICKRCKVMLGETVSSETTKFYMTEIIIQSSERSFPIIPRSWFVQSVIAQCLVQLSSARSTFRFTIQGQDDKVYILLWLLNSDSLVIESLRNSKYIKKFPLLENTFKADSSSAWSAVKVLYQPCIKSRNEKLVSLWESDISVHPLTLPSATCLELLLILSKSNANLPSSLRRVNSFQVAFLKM

Compound: CC1Cc2ccccc2N1C(=O)C1CCCN(C1)C(=O)CCl (mixture of isomers) [TRIM25 ligand 11 (diastereomer mixture)]
Experiment: probe-labelled cysteine peptide fold change vs DMSO (competition) (log2 fold change); higher = less target engagement (more negative = stronger competition)
Conditions: THP-1, incubation time: 4 h
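Also: competitive chemoproteomic profiling in live THP-1 cells with an iodoacetamide desthiobiotin (IA-DTB) probe, comparing probe-labelled peptide intensities in compound-treated cells against DMSO-treated controls.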

Row | Target | probe-labelled cysteine peptide fold change (10 µM) | probe-labelled cysteine peptide fold change (50 µM)
1 | UBR4_Q5T4S7_1962_LASAPVPFTVLSLTGNPCK (UniProt Q5T4S7) | -0.0315 | 0.0173
2 | UBE2I_P63279_75_CKFEPPLFHPNVYPSGTVCLSILEEDK (UniProt P63279) | -0.00777 | 0.167
3 | TXNRD2_Q9NNW7_446_DASQCYVK (UniProt Q9NNW7) | 0.00148 | 0.225
4 | TXNIP_Q9H3M7_49_ILACGVAK (UniProt Q9H3M7) | 0.365 | 0.565
5 | UBA1_P22314_234_DNPGVVTCLDEAR (UniProt P22314) | 0.0251 | -0.108
6 | UBE2O_Q9C0C9_230_CSMNTEDGAK (UniProt Q9C0C9) | -0.0963 | -0.168
7 | UBA6_A0AVT1_174_KINDFCR | -0.0527 | 0.0385
8 | TXNIP_Q9H3M7_63_VLWMQGSQQCK (UniProt Q9H3M7) | 0.115 | 0.423
9 | UBR3_Q6ZT12_1858_GKPLYICK (UniProt Q6ZT12) | -0.0369 | -0.0932
10 | U2SURP_O15042_65_ESLCDSPHQNLSRPLLENK (UniProt O15042) | -0.0929 | -0.314
11 | UBE2F_Q969M7_64_LHCFQLTVTPDEGYYQGGK (UniProt Q969M7) | 0.0805 | 0.0875
12 | TXNL1_O43396_149_AGCECLNESDEHGFDNCLR (UniProt O43396) | 0.221 | -0.182
13 | UAP1L1_Q3KQV9_271_LADPVFIGFCVLQGADCGAK (UniProt Q3KQV9) | -0.0621 | -0.144
14 | TYMP_P19971_280+293_CVGHALEVEEALLCMDGAGPPDLR (UniProt P19971) | 0.182 | -0.198
15 | UBE3D_Q7Z6J8_52_TPEGCTEIQLPAEVR (UniProt Q7Z6J8) | 0.0843 | 0.182

Exported as labelled records: part of the list above
U2SURP_O15042_65_ESLCDSPHQNLSRPLLENK (UniProt O15042)
  probe-labelled cysteine peptide fold change (10 µM): -0.0929
  probe-labelled cysteine peptide fold change (50 µM): -0.314
UAP1L1_Q3KQV9_271_LADPVFIGFCVLQGADCGAK (UniProt Q3KQV9)
  probe-labelled cysteine peptide fold change (10 µM): -0.0621
  probe-labelled cysteine peptide fold change (50 µM): -0.144
